These are yes or no findings as the source states them, for the method shown. Some binding calls cover weakened binding; strength is not graded here. Sequences can lack the tags named with a protein.
Tests used:
Assay in all cases: two-hybrid
[1] = target: YukB (BACTH fusion) (B. subtilis 168) (UniProt C0SPA7)
[2] = target: T1, YukC (BACTH fusion) (B. subtilis 168) (UniProt P71070)
T1 sequence: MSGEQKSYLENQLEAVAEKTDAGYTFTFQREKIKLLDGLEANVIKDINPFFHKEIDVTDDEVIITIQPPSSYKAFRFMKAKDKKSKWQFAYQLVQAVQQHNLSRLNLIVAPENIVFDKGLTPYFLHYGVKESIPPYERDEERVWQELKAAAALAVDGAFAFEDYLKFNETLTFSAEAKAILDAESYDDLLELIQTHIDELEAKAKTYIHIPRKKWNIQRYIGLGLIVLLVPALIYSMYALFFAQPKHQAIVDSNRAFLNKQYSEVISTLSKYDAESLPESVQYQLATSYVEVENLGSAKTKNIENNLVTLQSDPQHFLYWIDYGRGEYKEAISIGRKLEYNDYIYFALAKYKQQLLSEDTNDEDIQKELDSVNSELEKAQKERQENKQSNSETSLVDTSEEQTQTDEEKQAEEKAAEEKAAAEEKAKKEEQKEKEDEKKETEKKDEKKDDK

Amino acid sequences for entries named in this document (tags omitted).
UniProt C0SPA7, whole entry: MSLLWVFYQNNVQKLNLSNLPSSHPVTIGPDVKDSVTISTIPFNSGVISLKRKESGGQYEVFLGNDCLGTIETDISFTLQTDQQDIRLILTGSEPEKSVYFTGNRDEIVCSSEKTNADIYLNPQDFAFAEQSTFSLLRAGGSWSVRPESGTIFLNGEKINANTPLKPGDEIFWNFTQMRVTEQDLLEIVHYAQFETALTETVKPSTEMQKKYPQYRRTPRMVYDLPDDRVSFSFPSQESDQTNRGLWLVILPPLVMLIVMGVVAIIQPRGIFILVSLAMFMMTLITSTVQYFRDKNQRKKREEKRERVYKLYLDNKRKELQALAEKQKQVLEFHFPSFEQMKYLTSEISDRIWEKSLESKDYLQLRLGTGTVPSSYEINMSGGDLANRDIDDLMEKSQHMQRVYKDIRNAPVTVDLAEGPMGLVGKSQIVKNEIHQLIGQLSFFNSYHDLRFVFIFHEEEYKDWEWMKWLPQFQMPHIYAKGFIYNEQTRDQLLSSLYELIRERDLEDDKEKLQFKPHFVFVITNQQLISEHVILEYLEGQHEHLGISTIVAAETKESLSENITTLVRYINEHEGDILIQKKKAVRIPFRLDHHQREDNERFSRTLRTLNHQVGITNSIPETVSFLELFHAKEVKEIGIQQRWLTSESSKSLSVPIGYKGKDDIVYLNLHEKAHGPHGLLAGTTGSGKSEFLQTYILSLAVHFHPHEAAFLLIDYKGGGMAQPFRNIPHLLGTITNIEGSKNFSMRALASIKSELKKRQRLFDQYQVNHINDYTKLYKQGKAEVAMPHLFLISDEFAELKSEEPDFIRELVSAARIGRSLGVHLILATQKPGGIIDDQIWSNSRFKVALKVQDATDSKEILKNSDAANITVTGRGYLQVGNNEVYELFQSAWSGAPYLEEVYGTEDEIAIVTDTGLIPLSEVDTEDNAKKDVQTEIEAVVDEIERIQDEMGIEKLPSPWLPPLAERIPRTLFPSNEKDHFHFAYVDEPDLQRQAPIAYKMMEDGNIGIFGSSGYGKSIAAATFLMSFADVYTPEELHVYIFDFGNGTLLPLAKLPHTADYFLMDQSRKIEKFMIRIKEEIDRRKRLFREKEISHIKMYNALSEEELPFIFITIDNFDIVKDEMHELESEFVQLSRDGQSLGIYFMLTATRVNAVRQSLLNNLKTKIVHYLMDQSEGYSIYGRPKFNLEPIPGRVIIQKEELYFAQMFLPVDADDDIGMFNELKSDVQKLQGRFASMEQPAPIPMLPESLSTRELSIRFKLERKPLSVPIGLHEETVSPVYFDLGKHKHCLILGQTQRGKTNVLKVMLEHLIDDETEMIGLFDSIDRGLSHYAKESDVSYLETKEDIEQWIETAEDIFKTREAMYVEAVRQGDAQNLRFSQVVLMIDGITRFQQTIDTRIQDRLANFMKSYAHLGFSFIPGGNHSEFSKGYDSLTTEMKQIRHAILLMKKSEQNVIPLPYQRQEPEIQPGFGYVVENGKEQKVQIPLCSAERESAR
UniProt O32100, whole entry: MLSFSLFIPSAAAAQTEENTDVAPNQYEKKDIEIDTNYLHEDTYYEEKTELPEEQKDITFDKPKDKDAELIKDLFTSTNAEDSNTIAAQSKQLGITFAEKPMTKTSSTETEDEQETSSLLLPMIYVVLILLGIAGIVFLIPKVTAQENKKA

[3] = target: T2, YueB (BACTH fusion) (B. subtilis 168) (UniProt O32101)
T2 sequence: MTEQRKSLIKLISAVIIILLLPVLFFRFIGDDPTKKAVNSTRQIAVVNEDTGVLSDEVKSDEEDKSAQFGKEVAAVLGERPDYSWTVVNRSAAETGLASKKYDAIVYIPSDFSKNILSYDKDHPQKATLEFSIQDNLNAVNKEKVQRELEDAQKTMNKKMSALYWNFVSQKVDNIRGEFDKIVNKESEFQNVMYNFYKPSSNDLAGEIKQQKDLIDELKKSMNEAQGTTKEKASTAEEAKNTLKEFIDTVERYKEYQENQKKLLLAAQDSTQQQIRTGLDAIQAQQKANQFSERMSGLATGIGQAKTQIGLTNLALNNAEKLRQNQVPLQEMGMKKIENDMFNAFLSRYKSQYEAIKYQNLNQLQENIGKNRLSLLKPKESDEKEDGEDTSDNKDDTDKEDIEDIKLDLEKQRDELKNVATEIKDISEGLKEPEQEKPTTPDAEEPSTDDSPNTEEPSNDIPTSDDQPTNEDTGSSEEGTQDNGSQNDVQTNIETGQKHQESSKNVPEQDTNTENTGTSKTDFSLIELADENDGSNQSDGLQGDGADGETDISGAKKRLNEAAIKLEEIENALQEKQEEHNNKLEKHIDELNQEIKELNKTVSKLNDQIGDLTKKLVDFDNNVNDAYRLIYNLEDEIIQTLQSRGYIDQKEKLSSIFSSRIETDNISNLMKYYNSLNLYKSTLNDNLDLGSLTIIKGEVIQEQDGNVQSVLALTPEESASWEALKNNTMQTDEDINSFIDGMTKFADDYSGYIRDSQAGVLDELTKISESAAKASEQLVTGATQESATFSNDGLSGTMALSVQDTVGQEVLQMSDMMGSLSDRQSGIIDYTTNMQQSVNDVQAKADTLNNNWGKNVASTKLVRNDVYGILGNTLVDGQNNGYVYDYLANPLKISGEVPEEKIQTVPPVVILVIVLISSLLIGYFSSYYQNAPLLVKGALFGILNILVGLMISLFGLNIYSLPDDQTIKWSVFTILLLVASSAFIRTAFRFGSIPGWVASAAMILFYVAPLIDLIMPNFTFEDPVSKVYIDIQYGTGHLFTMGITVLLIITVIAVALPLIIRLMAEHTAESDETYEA

[4] = target: YueC (BACTH fusion) (B. subtilis 168) (UniProt O32100)
[5] = target: YukD (BACTH fusion) (B. subtilis 168) (UniProt P71071)

B1: YukD (BACTH fusion) (protein, UniProt P71071 1-79)
chain: MYIDITIDLKHYNGSVFDLRLSDYHPVKKVIDIAWQAQSVSMPPREGHWIRVVNKDKVFSGECKLSDCGITNGDRLEIL
With B1 the binding [1] was “no binding”, the binding [2] was “binds weakly” and the binding [3] was “binds”. The binding [4] was “binds” and the binding [5] was “no binding”.

— article doi:10.1101/2020.05.09.085852 (bioRxiv, 2020)
